# Laboratory results as given in publication PMC11040670, “Mechanistic and Kinetic Insights into Cellular Uptake of Biomimetic Dinitrosyl Iron Complexes and Intracellular Delivery of NO for Activation of Cytoprotective HO-1” (JACS Au, 2024).
# Tested on: MSC/N2a/HCEC
# Assay: Whole-cell EPR, results stated jointly for MSC/N2a/HCEC
# Type: cell-based
# Details: for formation of mononuclear DNICs relative to administered dinuclear DNIC (spin quantitation at tmax): MSC/N2a/HCEC, standard [PPN][(NO)2Fe(S5)]
# Procedure: Cellular uptake of DNIC–COOH and intracellular formation/decomposition of mononuclear DNICs in MSC/N2a/HCEC cells were investigated using EPR spectroscopy. Briefly, cells were seeded into two (or one) 100 mm dish(es) at a density of 2 × 10^6 cells/dish and incubated at 37 °C overnight. On the next day, cells were treated with 100 μM of DNIC–COOH (or 100 μM of DNIC–COOH to N2a and 75 μM of DNIC–COOH to HCEC) and incubated for 0, 0.5, 1, 2, 3, 4, 8, and 24 h, respectively. After removal of the supernatant solution, cells were washed with DPBS before addition of 1 mL of trypsin (0.05%)/EDTA (0.53 mM) and incubation for 5 min at 37 °C. After the obtained cell suspension solutions from two 100 mm dishes were combined and centrifuged at 100g for 5 min, the supernatant was removed before addition of 100 μL of αMEM to DNIC-treated MSC (or MEM to DNIC-treated N2a and HSFM to DNIC-treated HCEC). This solution was then transferred into EPR quartz tube and frozen in N2(l) before the EPR measurements. For each measured EPR spectrum, double integration was executed to obtain the integrated EPR intensity under each condition. Moreover, time-dependent decay of integrated EPR signal intensity after treatment of DNIC–COOH was fit to pseudo-first-order kinetics in order to determine the intracellular half-life for EPR-active mononuclear DNIC. Three independent experiments were executed to measure the average half-life for intracellular decomposition of EPR-active mononuclear DNIC after treatment with DNIC–COOH at 37 °C. On the other hand, at the time point with maximum integrated EPR signal intensity, spin quantitation of intracellular EPR-active DNICs was performed using mononuclear DNIC [PPN][(NO)2Fe(S5)] as a standard according to the methodology used in the previous work.[50] Cellular uptake of DNIC–COOMe (2.5 μM to MSC, 10 μM to N2a, or 1 μM to HCEC) and intracellular formation/decomposition of EPR-active mononuclear DNICs were investigated using EPR spectroscopy in a similar manner.
# Studies of cellular uptake mechanisms were investigated using EPR spectroscopy in combination with pretreatments of alternative inhibitors. After the MSC cells were seeded into two (or one) 100 mm dish(es) at a density of 2 × 10^6 cells/dish and incubated at 37 °C overnight, sequential treatments of 50 μM of NEM for 0.5 h and 100 μM of DNIC–COOH for 2 h were performed before the treated MSC cells were collected for EPR measurement following the procedure described above. […]
Compound,formation of mononuclear DNICs relative to administered dinuclear DNIC (spin quantitation at tmax),change of whole-cell EPR signal intensity (pretreatment of NEM (Figure S10)),change of whole-cell EPR signal intensity (using NEM-treated FBS (Figure S10))
"O=[N][Fe]1([N]=O)[SH](CCC(=O)O)[Fe]([N]=O)([N]=O)[SH]1CCC(=O)O (stereo not shown) [DNIC–COOH, [(NO)2Fe(μ-SCH2CH2COOH)2Fe(NO)2]]",~1%,no change,slight increase
"COC(=O)CC[SH]1[Fe]([N]=O)([N]=O)[SH](CCC(=O)OC)[Fe]1([N]=O)[N]=O (stereo not shown) [DNIC–COOMe, [(NO)2Fe(μ-SCH2CH2COOCH3)2Fe(NO)2]]",20–40%,,
